From patent publication US20250163160A1
Results are given in words; binding and its absence hold for the method and conditions named. Some results given as binding are weak or reduced against the parent protein; the word gives no strength.

Chains of the proteins cited; added tags and fusions are not shown. Lines headed by an entry give the natural chain unless they say otherwise; changes in a name come on top.
UniProt Q86Z14: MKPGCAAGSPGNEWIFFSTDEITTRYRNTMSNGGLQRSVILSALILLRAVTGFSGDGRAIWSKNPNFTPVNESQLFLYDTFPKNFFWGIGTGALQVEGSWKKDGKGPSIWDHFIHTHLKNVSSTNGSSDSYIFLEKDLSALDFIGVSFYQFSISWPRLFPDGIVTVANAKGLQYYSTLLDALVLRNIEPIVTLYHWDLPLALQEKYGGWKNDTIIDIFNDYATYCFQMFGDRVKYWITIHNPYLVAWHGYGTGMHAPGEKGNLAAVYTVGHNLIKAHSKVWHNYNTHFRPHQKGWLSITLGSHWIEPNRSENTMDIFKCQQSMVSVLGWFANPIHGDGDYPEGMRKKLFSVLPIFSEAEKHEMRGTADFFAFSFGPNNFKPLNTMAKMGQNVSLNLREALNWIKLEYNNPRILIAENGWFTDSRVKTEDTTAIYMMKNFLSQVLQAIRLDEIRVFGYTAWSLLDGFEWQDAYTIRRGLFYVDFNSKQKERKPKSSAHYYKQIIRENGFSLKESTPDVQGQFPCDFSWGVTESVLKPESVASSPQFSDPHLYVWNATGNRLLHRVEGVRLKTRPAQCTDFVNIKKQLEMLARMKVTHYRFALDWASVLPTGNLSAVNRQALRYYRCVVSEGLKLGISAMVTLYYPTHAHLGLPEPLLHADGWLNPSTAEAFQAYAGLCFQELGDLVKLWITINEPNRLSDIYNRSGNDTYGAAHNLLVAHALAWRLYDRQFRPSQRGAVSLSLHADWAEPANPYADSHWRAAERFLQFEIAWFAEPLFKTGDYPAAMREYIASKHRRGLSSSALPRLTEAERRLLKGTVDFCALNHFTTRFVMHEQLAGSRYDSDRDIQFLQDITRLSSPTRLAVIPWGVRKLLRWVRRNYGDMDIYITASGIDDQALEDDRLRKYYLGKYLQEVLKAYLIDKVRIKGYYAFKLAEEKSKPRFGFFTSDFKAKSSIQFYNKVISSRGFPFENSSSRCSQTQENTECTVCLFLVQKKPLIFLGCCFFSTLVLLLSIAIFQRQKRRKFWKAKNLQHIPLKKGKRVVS
UniProt Q9NSA1: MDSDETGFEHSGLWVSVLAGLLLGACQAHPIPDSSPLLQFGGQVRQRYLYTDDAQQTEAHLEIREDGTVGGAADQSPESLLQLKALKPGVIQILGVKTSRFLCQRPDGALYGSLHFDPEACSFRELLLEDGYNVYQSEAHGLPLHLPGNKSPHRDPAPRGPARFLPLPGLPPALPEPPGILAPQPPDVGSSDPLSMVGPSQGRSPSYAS

Tests used:
[1] = biological target: soluble human β-Klotho (human) (UniProt Q86Z14); experiment: Biacore sandwich format (Example 8): 17D8 immobilised, soluble human β-Klotho (or FGFR1c/β-Klotho ECD-Fc complex) captured on it, FGF21 injected about 775-1375 s; concentration not given
[2] = biological target: soluble human β-Klotho (human) (UniProt Q86Z14); experiment: Biacore: biotinylated FGF21 immobilised on the chip, 10 nM soluble β-Klotho injected alone or mixed with 100 nM antibody

binding [1]: binds
binding [2]: binds
Substance: Fibroblast Growth Factor 21 (FGF21), human (from UniProt Q9NSA1 29-209) (ligand)
